Source: publication PMC8494447
These are yes or no findings as the source states them, for the method shown. In cells and extracts the contact can be indirect. Some entries that bind do so weakly or less than the wild type. Where a sequence is shown, tags or fusion partners need not be part of it.

Chains of the proteins cited; added tags and fusions are not shown.
UniProt Q13546: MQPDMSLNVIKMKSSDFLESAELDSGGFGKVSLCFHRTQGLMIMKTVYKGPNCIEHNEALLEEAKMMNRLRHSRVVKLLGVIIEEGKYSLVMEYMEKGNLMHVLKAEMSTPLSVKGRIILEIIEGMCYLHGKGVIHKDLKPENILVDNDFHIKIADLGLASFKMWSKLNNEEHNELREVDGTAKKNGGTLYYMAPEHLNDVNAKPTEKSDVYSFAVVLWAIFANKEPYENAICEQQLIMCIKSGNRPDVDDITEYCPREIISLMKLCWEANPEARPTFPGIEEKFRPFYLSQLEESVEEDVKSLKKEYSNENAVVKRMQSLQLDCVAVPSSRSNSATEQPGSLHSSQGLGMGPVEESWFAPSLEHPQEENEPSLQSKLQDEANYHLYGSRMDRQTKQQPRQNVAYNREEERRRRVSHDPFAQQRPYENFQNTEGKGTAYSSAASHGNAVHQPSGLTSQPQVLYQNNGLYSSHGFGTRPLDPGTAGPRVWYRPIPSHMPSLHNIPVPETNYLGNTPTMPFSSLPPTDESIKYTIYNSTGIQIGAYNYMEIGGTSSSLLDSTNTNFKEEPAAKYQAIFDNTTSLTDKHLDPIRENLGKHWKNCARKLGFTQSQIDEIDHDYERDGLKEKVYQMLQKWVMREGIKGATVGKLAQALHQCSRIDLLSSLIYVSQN
UniProt Q9Y572: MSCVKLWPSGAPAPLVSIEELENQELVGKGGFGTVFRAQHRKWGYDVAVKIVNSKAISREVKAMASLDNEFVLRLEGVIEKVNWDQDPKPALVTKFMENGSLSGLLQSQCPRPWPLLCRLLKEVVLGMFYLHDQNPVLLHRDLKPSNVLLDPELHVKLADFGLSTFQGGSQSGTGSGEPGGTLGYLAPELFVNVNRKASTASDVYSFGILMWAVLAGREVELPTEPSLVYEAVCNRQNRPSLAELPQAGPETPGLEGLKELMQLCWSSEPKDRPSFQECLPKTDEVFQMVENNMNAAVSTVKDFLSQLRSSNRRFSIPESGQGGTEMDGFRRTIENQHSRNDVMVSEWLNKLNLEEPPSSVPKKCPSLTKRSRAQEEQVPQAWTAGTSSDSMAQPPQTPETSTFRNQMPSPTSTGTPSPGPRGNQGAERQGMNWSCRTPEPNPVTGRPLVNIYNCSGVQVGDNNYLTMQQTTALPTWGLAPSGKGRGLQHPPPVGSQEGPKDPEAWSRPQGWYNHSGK
UniProt Q14790: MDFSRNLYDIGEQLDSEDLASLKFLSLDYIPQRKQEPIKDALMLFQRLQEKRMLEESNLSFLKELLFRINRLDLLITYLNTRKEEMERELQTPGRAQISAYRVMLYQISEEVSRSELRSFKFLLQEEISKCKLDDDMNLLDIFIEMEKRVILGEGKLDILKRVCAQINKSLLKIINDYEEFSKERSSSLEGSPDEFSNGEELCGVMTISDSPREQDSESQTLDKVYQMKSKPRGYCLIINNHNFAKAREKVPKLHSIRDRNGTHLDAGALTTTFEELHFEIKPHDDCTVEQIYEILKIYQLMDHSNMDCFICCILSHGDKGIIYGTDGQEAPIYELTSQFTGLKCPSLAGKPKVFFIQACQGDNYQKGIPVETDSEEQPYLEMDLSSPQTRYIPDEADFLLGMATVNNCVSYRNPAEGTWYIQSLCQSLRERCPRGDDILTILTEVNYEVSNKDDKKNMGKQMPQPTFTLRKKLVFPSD

B1: Myc-HSPA13 (protein, UniProt P48723 23-471)
chain: QQYLPLPTPKVIGIDLGTTYCSVGVFFPGTGKVKVIPDENGHISIPSMVSFTDNDVYVGYESVELADSNPQNTIYDAKRFIGKIFTAEELEAEIGRYPFKVLNKNGMVEFSVTSNETITVSPEYVGSRLLLKLKEMAEAYLGMPVANAVISVPAEFDLKQRNSTIEAANLAGLKILRVINEPTAAAMAYGLHKADVFHVLVIDLGGGTLDVSLLNKQGGMFLTRAMSGNNKLGGQDFNQRLLQYLYKQIYQTYGFVPSRKEEIHRLRQAVEMVKLNLTLHQSAQLSVLLTVEEQDRKEPHSSDTELPKDKLSSADDHRVNSGFGRGLSDKKSGESQVLFETEISRKLFDTLNEDLFQKILVPIQQVLKEGHLEKTEIDEVVLVGGSTRIPRIRQVIQEFFGKDPNTSVDPDLAVVTGVAIQAGIDGGSWPLQVSALEIPNKHLQKTNFN
B2: Flag-HSPA13 (HT29, stable) (protein, UniProt P48723 23-471)
chain: B1 chain

Experiments:
Flag-RIP1 = Flag-RIP1 (UniProt Q13546); experiment: co-IP; HEK293T transiently transfected, 24 h, with or without TNFα (10 ng/ml) for the indicated time; IP with anti-Flag, 4 h at 4°C; IP lysis buffer (150 mM NaCl, 20 mM tris-HCl pH 7.5, 0.5% Triton X-100, 0.5% NP-40); Western blot
Flag-RIP3 = Flag-RIP3 (UniProt Q9Y572); experiment: as above
[1] = target: caspase 8, endogenous in HT29 (human (endogenous in HT29)) (UniProt Q14790); experiment: co-IP; cells treated with TNFα plus Smac mimetic (T/S); IP with anti-caspase 8 to isolate complex IIa; HT29 HSPA13+/+ or HSPA13−/− (Fig. 3E), semi-endogenous with Flag-HSPA13 (fig. S1D)

Binder	binding (Flag-RIP1)	binding (Flag-RIP3)	binding [1]
B1	binds	no binding	
B2			no binding
